No constants are given. Whether binding was seen depends on the method and setting. In cells and extracts the contact can be indirect. Some results given as binding are weak or reduced against the parent protein; the word gives no strength.

Protein sequences, listed by entry. Tags and fused reporters are not part of them.
UniProt P35222: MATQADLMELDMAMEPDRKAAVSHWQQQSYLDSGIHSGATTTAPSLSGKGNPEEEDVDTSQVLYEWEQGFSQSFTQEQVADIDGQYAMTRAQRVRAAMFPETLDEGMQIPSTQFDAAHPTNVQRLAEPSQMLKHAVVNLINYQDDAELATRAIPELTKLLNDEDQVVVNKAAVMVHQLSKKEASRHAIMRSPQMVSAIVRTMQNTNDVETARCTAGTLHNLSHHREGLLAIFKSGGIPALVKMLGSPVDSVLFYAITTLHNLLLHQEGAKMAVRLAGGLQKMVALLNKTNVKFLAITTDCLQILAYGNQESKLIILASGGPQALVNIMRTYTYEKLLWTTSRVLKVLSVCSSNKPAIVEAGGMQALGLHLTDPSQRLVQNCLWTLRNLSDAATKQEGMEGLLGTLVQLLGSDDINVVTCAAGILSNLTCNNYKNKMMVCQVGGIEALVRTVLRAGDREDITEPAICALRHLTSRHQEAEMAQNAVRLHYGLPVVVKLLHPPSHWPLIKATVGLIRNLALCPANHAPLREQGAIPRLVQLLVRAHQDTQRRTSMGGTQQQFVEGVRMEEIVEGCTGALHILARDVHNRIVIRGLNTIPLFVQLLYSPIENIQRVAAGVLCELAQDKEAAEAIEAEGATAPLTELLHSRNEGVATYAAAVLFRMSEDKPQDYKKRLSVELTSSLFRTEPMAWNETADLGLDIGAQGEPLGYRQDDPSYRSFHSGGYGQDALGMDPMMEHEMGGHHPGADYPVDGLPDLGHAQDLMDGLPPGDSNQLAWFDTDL
UniProt P40227: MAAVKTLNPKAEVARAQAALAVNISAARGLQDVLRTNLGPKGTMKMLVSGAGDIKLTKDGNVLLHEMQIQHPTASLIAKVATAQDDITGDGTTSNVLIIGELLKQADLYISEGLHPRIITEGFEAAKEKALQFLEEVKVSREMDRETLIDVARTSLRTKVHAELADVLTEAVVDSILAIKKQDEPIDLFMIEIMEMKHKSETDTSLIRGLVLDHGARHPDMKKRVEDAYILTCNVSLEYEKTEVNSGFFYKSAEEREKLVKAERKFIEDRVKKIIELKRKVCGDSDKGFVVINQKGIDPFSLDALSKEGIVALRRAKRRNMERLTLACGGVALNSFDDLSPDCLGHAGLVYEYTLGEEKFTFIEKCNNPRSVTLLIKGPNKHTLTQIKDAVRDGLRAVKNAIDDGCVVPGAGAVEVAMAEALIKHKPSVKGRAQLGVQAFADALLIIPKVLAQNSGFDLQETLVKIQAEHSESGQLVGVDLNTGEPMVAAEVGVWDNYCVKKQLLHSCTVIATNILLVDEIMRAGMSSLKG
UniProt O15169: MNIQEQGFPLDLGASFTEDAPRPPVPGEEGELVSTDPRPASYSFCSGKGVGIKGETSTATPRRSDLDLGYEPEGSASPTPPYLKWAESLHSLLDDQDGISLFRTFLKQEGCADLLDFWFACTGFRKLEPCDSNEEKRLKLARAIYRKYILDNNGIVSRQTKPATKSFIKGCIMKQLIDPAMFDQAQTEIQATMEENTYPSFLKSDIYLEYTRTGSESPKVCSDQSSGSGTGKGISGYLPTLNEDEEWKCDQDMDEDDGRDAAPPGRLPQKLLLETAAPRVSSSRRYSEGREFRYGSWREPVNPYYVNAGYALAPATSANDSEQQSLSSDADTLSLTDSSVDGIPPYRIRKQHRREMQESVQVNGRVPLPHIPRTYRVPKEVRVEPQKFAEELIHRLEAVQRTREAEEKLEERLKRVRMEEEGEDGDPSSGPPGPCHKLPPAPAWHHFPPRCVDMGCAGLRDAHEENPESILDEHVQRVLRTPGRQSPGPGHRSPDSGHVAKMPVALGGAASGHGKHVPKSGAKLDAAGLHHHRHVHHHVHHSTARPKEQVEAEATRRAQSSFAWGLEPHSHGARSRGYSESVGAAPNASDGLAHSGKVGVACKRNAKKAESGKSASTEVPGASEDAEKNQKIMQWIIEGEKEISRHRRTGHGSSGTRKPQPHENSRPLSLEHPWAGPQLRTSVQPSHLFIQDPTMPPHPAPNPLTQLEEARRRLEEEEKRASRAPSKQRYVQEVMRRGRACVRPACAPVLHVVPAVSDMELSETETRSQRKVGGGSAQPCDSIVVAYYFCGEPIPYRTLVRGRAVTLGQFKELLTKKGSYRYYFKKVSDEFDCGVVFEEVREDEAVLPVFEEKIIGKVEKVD

Assay [1] concerns the target β‐catenin (human (endogenous in HGC-27 and MKN-45)) (UniProt P35222). Description: co-IP; β-catenin with endogenous AXIN1, DVL and GSK3β in HGC-27 cells co-cultured with CAFs, upon CCT6A overexpression; Western blot.
The target of assay [2] is Flag‐tagged CCT6A (UniProt P40227). Description: co-IP; HGC-27 and MKN-45 cells co-cultured with CAFs and expressing Flag-tagged CCT6A; IP lysis buffer, anti-CCT6A overnight at 4 °C, protein A/G beads, Western blot.

Turning to AXIN1 (from UniProt O15169 1-862), in assay [1], the binding result is “binds”.

For the substance β‐catenin (from UniProt P35222 1-781), in assay [2], the binding result is given as “binds”.

(Values after PMC12520511.)
